Experimental data published in article PMC12376557.
Results are given in words; binding and its absence hold for the method and conditions named. Binding seen in cells or lysates may run through a third protein. Some entries that bind do so weakly or less than the wild type. For part of these data: Where a sequence is shown, tags or fusion partners need not be part of it.

T1: NAT10-Flag (N-acetyltransferase 10, exogenously expressed) (UniProt Q9H0A0)
T1 sequence: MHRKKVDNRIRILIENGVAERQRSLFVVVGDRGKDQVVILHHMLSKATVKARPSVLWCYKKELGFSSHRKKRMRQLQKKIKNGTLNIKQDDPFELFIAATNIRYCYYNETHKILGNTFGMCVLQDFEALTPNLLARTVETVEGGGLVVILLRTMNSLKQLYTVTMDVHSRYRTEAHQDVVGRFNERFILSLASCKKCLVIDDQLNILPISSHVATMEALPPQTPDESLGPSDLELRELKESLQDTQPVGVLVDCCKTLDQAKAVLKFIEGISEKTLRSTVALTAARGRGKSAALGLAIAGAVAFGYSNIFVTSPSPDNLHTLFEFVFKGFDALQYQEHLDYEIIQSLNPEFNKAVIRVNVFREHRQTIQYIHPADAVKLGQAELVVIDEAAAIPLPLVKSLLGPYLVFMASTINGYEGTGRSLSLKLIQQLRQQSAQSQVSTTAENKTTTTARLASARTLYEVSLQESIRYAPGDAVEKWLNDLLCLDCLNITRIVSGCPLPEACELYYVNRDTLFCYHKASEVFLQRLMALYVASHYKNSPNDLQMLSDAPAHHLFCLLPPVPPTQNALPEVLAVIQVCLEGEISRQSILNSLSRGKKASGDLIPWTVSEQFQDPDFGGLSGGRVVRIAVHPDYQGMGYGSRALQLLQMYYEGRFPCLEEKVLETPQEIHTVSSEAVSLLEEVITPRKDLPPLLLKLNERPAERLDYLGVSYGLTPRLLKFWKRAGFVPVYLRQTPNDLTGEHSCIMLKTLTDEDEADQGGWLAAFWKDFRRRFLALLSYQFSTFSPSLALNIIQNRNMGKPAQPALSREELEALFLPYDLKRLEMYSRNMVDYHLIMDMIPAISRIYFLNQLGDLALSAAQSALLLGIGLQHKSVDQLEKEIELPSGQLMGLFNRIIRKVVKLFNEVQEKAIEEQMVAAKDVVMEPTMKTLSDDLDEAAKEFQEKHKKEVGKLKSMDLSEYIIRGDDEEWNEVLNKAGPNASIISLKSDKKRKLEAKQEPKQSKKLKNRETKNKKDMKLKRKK

T2: GST-NAT10 (full-length NAT10, recombinant) (UniProt Q9H0A0)
T2 sequence: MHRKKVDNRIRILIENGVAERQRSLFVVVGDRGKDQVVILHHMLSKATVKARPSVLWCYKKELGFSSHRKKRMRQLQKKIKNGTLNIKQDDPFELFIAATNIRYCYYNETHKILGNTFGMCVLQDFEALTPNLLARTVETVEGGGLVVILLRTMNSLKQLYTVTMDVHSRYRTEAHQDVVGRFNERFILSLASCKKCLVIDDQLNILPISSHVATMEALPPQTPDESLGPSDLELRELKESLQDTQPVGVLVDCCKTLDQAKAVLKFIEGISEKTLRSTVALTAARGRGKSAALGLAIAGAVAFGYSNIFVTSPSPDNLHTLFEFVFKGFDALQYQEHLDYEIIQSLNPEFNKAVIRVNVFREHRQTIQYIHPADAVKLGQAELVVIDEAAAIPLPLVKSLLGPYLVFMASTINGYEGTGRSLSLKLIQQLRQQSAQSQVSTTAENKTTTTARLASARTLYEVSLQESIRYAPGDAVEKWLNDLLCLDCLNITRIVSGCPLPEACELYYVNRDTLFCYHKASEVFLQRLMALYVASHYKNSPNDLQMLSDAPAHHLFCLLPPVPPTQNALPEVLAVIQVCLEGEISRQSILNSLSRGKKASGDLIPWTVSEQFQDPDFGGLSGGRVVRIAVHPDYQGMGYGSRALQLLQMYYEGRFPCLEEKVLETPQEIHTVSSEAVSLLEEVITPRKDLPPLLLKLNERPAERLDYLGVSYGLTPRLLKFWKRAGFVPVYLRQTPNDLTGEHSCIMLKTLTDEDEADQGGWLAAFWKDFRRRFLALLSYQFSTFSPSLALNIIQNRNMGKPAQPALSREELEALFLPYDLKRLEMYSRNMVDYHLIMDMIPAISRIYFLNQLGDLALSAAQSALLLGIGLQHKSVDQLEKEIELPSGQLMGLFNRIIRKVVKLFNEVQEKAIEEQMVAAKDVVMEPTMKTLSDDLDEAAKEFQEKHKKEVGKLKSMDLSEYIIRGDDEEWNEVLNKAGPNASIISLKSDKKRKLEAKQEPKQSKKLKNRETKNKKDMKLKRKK

T3: endogenous NAT10 (N-acetyltransferase 10) (human (endogenous in ESCC cell lines)) (UniProt Q9H0A0)
T3 sequence: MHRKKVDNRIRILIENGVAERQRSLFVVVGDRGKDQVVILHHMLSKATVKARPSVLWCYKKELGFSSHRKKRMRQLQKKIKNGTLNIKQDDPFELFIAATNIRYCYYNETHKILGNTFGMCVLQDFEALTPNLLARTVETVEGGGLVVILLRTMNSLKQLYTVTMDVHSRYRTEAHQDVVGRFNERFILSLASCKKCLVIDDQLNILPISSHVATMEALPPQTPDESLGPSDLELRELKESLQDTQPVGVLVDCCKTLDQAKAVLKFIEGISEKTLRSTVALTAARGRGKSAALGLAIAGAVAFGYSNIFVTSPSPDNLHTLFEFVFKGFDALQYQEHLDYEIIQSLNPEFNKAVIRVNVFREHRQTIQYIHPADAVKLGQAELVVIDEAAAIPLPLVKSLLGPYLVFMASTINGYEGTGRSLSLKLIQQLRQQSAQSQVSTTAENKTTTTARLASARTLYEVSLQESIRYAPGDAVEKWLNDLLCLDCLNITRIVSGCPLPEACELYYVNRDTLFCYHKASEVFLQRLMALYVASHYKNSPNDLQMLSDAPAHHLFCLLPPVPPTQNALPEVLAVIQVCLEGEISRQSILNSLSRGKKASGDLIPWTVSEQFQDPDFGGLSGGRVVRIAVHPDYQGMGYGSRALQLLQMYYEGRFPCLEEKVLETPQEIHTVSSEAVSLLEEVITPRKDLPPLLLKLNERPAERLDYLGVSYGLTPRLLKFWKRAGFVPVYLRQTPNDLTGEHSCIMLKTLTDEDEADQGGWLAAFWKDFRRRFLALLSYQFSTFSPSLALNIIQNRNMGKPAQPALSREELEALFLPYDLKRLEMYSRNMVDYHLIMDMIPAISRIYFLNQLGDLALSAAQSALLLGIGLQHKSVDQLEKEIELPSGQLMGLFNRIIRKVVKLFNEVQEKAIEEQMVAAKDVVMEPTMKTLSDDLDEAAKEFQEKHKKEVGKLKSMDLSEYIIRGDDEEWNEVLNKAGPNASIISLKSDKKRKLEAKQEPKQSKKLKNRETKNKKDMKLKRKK


Columns and labels:
[1] = target: T1, NAT10-Flag (N-acetyltransferase 10, exogenously expressed); assay: co-IP; KYSE150Luc and KYSE410Luc cells co-transfected with NAT10-Flag and USP39-HA plasmids, with or without G-749 (5 uM); 1 mg total protein, primary antibody overnight at 4 C, beads 6 h; normal IgG as negative control; Western blot
[2] = target: T2, GST-NAT10 (full-length NAT10, recombinant); assay: pull-down; 10 ug GST-NAT10 protein on glutathione beads, 1 mg total protein from ESCC cells (KYSE150Luc or KYSE410Luc), with or without 5 uM G-749, incubated overnight in vitro; Western blot; only the target purified
[3] = target: T3, endogenous NAT10 (N-acetyltransferase 10) (human (endogenous in ESCC cell lines)); assay: co-IP; endogenous NAT10 or USP39 in ESCC cells, with or without G-749; 1 mg total protein, primary antibody overnight at 4 C, beads 6 h; Western blot

| binding [1] | binding [2] | binding [3] | Binder |
| --- | --- | --- | --- |
| binds |  |  | USP39-HA (Ubiquitin-specific Peptidase 39, exogenously expressed) (enzyme, UniProt Q53GS9 1-565) MSGRSKRESRGSTRGKRESESRGSSGRVKRERDREREPEAASSRGSPVRVKREFEPASAREAPASVVPFVRVKREREVDEDSEPEREVRAKNGRVDSEDRRSRHCPYLDTINRSVLDFDFEKLCSISLSHINAYACLVCGKYFQGRGLKSHAYIHSVQFSHHVFLNLHTLKFYCLPDNYEIIDSSLEDITYVLKPTFTKQQIANLDKQAKLSRAYDGTTYLPGIVGLNNIKANDYANAVLQALSNVPPLRNYFLEEDNYKNIKRPPGDIMFLLVQRFGELMRKLWNPRNFKAHVSPHEMLQAVVLCSKKTFQITKQGDGVDFLSWFLNALHSALGGTKKKKKTIVTDVFQGSMRIFTKKLPHPDLPAEEKEQLLHNDEYQETMVESTFMYLTLDLPTAPLYKDEKEQLIIPQVPLFNILAKFNGITEKEYKTYKENFLKRFQLTKLPPYLIFCIKRFTKNNFFVEKNPTIVNFPITNVDLREYLSEEVQAVHKNTTYDLIANIVHDGKPSEGSYRIHVLHHGTGKWYELQDLQVTDILPQMITLSEAYIQIWKRRDNDETNQQGA |
|  | binds | binds | endogenous USP39 (Ubiquitin-specific Peptidase 39) (enzyme, UniProt Q53GS9 1-565) MSGRSKRESRGSTRGKRESESRGSSGRVKRERDREREPEAASSRGSPVRVKREFEPASAREAPASVVPFVRVKREREVDEDSEPEREVRAKNGRVDSEDRRSRHCPYLDTINRSVLDFDFEKLCSISLSHINAYACLVCGKYFQGRGLKSHAYIHSVQFSHHVFLNLHTLKFYCLPDNYEIIDSSLEDITYVLKPTFTKQQIANLDKQAKLSRAYDGTTYLPGIVGLNNIKANDYANAVLQALSNVPPLRNYFLEEDNYKNIKRPPGDIMFLLVQRFGELMRKLWNPRNFKAHVSPHEMLQAVVLCSKKTFQITKQGDGVDFLSWFLNALHSALGGTKKKKKTIVTDVFQGSMRIFTKKLPHPDLPAEEKEQLLHNDEYQETMVESTFMYLTLDLPTAPLYKDEKEQLIIPQVPLFNILAKFNGITEKEYKTYKENFLKRFQLTKLPPYLIFCIKRFTKNNFFVEKNPTIVNFPITNVDLREYLSEEVQAVHKNTTYDLIANIVHDGKPSEGSYRIHVLHHGTGKWYELQDLQVTDILPQMITLSEAYIQIWKRRDNDETNQQGA |
